Measured values from paper PMC13434269.
Read-outs that look alike come from different tables or passages of the source. Results are given in words; binding and its absence hold for the method and conditions named. Binding seen in cells or lysates may run through a third protein. Some entries that bind do so weakly or less than the wild type.

Amino acid sequences for entries named in this document (tags omitted).
UniProt Q8VBV3: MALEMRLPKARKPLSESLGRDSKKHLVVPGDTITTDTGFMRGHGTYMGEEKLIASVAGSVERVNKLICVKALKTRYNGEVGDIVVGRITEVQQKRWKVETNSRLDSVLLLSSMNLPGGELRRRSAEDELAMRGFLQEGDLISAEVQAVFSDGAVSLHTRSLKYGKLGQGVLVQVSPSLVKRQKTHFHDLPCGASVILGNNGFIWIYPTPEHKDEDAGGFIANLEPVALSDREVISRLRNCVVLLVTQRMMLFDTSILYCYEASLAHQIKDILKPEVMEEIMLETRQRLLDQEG
UniProt Q8C0S1: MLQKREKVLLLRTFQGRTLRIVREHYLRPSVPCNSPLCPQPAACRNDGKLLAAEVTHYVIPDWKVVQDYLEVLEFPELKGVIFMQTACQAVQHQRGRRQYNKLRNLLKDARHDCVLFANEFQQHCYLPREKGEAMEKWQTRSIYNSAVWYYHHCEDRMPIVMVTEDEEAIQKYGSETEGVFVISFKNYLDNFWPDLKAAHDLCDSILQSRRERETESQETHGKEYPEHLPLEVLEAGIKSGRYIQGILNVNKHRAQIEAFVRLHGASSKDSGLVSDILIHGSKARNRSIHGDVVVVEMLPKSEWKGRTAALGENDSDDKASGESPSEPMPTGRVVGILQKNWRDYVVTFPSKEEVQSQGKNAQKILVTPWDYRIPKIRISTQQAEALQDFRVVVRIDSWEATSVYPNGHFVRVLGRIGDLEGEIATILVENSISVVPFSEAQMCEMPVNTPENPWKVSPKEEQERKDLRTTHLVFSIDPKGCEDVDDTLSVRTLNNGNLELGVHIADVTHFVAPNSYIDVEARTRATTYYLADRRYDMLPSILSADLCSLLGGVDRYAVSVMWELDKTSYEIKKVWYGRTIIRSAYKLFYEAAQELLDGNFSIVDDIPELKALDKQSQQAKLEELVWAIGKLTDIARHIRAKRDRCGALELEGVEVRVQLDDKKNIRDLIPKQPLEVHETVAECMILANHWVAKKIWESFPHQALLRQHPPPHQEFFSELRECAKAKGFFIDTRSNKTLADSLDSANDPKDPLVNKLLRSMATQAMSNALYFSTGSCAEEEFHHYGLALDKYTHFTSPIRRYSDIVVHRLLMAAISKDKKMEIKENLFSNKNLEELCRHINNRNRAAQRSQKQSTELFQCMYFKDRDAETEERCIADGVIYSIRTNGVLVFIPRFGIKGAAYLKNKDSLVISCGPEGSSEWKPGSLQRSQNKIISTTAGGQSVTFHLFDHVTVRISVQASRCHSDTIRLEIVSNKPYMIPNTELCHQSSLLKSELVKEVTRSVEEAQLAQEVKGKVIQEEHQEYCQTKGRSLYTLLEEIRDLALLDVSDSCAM
UniProt Q7TQK4: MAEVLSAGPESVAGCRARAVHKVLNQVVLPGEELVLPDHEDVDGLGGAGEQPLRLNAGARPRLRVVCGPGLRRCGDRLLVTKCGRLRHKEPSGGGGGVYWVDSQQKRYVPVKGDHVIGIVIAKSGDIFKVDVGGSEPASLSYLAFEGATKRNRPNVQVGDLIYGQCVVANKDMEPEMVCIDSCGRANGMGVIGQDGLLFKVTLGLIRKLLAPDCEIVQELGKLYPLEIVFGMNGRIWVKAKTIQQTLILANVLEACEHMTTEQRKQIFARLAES
UniProt Q921I9: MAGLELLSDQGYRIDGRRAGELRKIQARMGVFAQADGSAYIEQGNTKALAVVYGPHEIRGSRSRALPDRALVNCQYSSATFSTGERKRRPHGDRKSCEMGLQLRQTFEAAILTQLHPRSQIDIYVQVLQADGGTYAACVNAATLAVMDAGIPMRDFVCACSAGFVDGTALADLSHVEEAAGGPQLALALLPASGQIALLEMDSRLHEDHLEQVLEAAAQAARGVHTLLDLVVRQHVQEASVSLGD
UniProt Q8BTW3: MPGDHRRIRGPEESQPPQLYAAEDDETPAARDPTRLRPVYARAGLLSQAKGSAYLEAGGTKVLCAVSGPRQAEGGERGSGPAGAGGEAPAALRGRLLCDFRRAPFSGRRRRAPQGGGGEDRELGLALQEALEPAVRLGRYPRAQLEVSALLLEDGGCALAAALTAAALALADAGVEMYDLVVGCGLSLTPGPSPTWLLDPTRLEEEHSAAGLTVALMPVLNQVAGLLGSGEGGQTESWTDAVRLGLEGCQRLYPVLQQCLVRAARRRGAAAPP
UniProt Q9D0M0: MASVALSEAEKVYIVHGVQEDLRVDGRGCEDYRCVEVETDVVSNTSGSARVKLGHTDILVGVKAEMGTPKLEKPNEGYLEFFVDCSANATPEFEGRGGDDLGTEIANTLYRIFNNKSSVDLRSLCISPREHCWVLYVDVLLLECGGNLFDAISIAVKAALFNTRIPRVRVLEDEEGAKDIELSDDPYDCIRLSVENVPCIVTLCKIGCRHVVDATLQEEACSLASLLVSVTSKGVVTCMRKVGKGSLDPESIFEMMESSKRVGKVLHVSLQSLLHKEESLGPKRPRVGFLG
UniProt Q9D753: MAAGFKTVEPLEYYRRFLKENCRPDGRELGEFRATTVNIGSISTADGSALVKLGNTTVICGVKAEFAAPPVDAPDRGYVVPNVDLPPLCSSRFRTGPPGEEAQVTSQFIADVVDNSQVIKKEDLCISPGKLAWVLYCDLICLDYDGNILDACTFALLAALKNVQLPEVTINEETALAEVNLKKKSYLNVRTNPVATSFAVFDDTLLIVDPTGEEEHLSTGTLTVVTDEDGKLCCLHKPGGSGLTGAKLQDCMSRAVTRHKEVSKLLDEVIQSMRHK
UniProt Q9JHI7: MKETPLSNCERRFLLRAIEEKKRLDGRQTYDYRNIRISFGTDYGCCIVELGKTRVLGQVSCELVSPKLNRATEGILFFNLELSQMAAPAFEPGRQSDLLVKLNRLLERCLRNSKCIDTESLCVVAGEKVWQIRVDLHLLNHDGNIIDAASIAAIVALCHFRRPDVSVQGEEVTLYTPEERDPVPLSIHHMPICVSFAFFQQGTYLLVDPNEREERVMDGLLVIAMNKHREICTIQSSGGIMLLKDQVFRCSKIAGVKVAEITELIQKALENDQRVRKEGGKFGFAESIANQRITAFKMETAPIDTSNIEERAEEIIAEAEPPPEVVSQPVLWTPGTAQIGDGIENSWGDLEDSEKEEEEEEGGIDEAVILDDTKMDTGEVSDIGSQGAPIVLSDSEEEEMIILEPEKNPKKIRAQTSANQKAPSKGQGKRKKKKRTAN

B1: Dis3 (enzyme, UniProt Q9CSH3 1-958)
chain: MLRSKTFLKKTRAGGVVKIVREHYLRDDIGCGAPACSACGGAHAGPALELQPRDQASSLCPWPHYLLPDTNVLLHQIDVLEHPAIRNVIVLQTVMQEVRNRSAPIYKRIRDVTNNQEKHFYTFTNEHHKETYIEQEQGENANDRNDRAIRVAAKWYNEHLKRVAADSQLQVILITNDRKNKEKAVQEGIPAFTCEEYVKSLTANPELIDRLAYLSDEMNEIESGKIIFSEHLPLSKLQQGIKSGSYLQGTFRASRENYLEATVWIHGDKEEEKEILIQGIKHLNRAVHEDIVAVELLPRSQWVAPSSVVLDDEGQNEDDVEKDEERELLLKTAVSEKMLRPTGRVVGIIKRNWRPYCGMLSKSDIKESRRHLFTPADKRIPRIRIETRQASALEGRRIIVAIDGWPRNSRYPNGHFVKNLGDVGEKETETEVLLLEHDVPHQPFSQAVLSFLPRMPWSITEEDMKNREDLRHLCVCSVDPPGCTDIDDALHCRELSNGNLEVGVHIADVSHFIRPGNALDQESARRGTTVYLCEKRIDMVPELLSSNLCSLRSNVDRLAFSCIWEMNHNAEILKTRFTKSVINSKASLTYAEAQMRIDSAAMNDDITTSLRGLNQLAKILKKGRIEKGALTLSSPEIRFHMDSETHDPIDLQTKELRETNSMVEEFMLLANISVAKKIHEEFSEHALLRKHPAPPPSNYDILVKAAKSKNLQIKTDTAKSLADSLDRAESPDFPYLNTLLRILATRCMMQAVYFCSGMDNDFHHYGLASPIYTHFTSPIRRYADIIVHRLLAVAIGADCTYPELTDKHKLSDICKNLNFRHKMAQYAQRASVAFHTQLFFKSKGIVSEEAYILFVRKNAIVVLIPKYGLEGTVFFEEKDKPKPRLAYDDEIPSLRIEGTVFHVFDKVKVKITLDSSNLQHQKIRMALVEPQIPGINIPPNVADKALTAPGGKKRKLEK
B2: Exosc10 (enzyme, UniProt P56960 1-887)
chain: MAPPSPREHQSAPATSATKPDAEMVLPGFPDADSFVKFALGSVVAVTKASGGLPQFGDEYDFYRSFPAFQAFCETQGDRLLQCMSRVMQYHGCRSNIKDRSKVTELEDKFDLLVDTNDVILERVGMLLDEASGVNKHQQPVLPAGLQVPKTIVSSWNRKAGEYGKKAKSETFRLLHAKNIVRPQLRFREKIDNSNTPFLPKIFVKPNARKPLPLALSKERRERPQDRPEDLDVPPALADFIHQQRTQQVEQDMFAHPYQYELDHFTPPQSVLQRPKPQLYRAVGETPCHLVSSLDELVELNEKLLGCQEFAVDLEHHSYRSFLGLTCLMQISTRTEDFIVDTLELRSDMYILNESLTDPAIVKVFHGADSDIEWLQKDFGLYVVNMFDTHQAARLLNLARHSLDHLLRLYCGVESNKQYQLADWRIRPLPEEMLSYARDDTHYLLYIYDRMRLELWERGNHQPVQLQVVWQRSRDICLKKFVKPIFTDESYLELYRKQKKHLNSQQLTAFQLLFAWRDKTARREDESYGYVLPNHMMLKIAEELPKEPQGIIACCNPVPPLVRQQINEMHLLIQQAREMPLLKSENAAGVRKSGPLPSAERLENDLFGPHDCSHAPPDNYQNTSTDGTLPLQKQPSLFTEGKEETSVDAGCLLATAVITLFSEPNTEEGGKTPLTVAQKKAQNIMQSFENPFRMFLPSLEHKAHISQAAKFDPSSKIYEISNRWKLASQVQVQKEPKEATKKKVAEQTAAREEAKEEAAAGVLEQAIPVRQQAALENATKKRERATSDLRTIEQKQEKKRLKSSKKAKDPDPPGKDFSPYDYSQSDFRAFAGDSKSKPSSQFDPNKLAPSGKKGVGAKKCKQSVGNKSMSFAVGKSDRGFRHNWPKR

What was measured:
[1] = molecular target: Exosc2-mCherry-V5 (mouse) (UniProt Q8VBV3); assay: co-IP; V5-Trap Magnetic Agarose on 1 mg lysate of mESCs expressing Exosc2-mCherry-V5, 4 °C 3-4 h, IP lysis buffer (50 mM Tris-HCl pH 7.5, 150 mM NaCl, 1% Igepal CA-630, 0.5 mM EDTA), Western blot of bead-bound proteins; also after iCas9 depletion of Exosc6, Exosc8, Exosc9, Exosc5, Exosc1 or control Olfr10 for 48 or 72 h
[2] = molecular target: Exosc2-mScarlet3-SPOT (mouse) (UniProt Q8VBV3); assay: co-IP; SPOT-Trap Magnetic Agarose on lysate of Tir1 (control), AID-Exosc3 and Exosc6-AID mESCs expressing Exosc2-mScarlet3-SPOT, with acute depletion by IAA, Western blot of input and bead-bound proteins
[3] = molecular target: Exosc2-mCherry-V5 (mouse) (UniProt Q8VBV3); assay: co-IP; V5-Trap Magnetic Agarose on 1 mg lysate of mESCs expressing Exosc2-mCherry-V5, 4 °C 3-4 h, IP lysis buffer (50 mM Tris-HCl pH 7.5, 150 mM NaCl, 1% Igepal CA-630, 0.5 mM EDTA), Western blot of bead-bound proteins; also after iCas9 depletion of Exosc6, Exosc8, Exosc9, Exosc5, Exosc1 or control Olfr10 for 48 or 72 h; remark: listed apart in the source

| Molecule | binding [1] | binding [2] | binding [3] |
| --- | --- | --- | --- |
| Dis3L (from UniProt Q8C0S1 1-1053) (enzyme) | binds |  |  |
| Exosc1 (from UniProt Q9DAA6-1 1-195) | binds |  |  |
| Exosc3 (from UniProt Q7TQK4 1-274) | binds |  |  |
| Exosc4 (from UniProt Q921I9 1-245) | binds | binds |  |
| Exosc6 (from UniProt Q8BTW3 1-273) | binds | binds |  |
| Exosc7 (from UniProt Q9D0M0 1-291) | binds | binds |  |
| Exosc8 (from UniProt Q9D753 1-276) | binds | binds |  |
| Exosc9 (from UniProt Q9JHI7 1-438) | binds | binds |  |
| B1 |  |  | binds weakly |
| B2 |  |  | binds |
